Measurements taken from patent US20260184793A1 (TJ BIOPHARMA SHANGHAI, published 2026).
Numbering of substitutions follows the chain as printed. Results are given in words; binding and its absence hold for the method and conditions named. Some results given as binding are weak or reduced against the parent protein; the word gives no strength.

The chains behind the UniProt entries cited, without tags or fusion partners. Where a name states a change or a piece, a line headed by the entry shows the natural chain unless it says otherwise. Residues count along the entry.
UniProt Q9NZQ7: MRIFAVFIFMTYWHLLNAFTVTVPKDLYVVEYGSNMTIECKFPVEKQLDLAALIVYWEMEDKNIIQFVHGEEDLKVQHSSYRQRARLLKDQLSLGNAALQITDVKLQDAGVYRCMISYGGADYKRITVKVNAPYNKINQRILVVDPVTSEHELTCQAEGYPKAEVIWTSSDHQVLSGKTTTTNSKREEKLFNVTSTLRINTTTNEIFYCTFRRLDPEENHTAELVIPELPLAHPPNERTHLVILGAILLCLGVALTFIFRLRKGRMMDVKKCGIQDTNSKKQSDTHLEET
human PD-L1 expressed on cells (Raji cells overexpressing human PD-L1; CHO cells): residues 19-290 of Q9NZQ7

B1: 93-VH-4 (VHH)
VHH: EVQLVESGGGLVQPGGSLRLSCAASGFTFTFRHYVMGWFRQAPGKGLEFVAAISWSGSGSYYADSVKGRFTISRDNSKNTVYLQMNSLRAEDTAVYYCAADMTTRMSQASREYDYWGQGTLVTVSS
B2: 93-VH-8 (VHH)
VHH: B1 VHH with F27R
B3: 93-VH-6 (VHH)
VHH: B1 VHH with G46E, L47R
B4: 112-VHH5-PTM (VHH)
VHH: EVQLVESGGGLVQPGGSLRLSCAASGSIFSSGTQFSDSKIDWYRQAPGKQRDWVAGIFSTGSTIYEDSVKGRFAISRDNAKNSLYLQMNSLRAEDTAVYYCRVIGRGILAWGQGTLVTVSS
B5: R21448511 (VHH)
VHH: B1 VHH with G46E, L47M, A52D, A109D
B6: R21448503 (VHH)
VHH: B1 VHH with G46E, L47M, A52D
B7: R21448510 (VHH)
VHH: B1 VHH with G46E, L47M, A52D, R105E
B8: R21448512 (VHH)
VHH: B1 VHH with G46E, L47M, A52D, R111D
B9: R21448515 (VHH)
VHH: B1 VHH with R32Y, G46E, L47R, A52D, R111D
notes: ELISA detection with anti-human IgG Fc implies a human Fc part that is not described
B10: R21448507 (VHH)
VHH: B1 VHH with R32Y, G46E, L47R, R105E
notes: as for B9
B11: R21448506 (VHH)
VHH: B1 VHH with G46E, L47R, R111D
notes: as for B9
B12: R21448504 (VHH)
VHH: B1 VHH with G46E, L47R, R105E
notes: as for B9
B13: R21448514 (VHH)
VHH: B1 VHH with R32Y, G46E, L47R, A52D, A109D
notes: as for B9
B14: R21448505 (VHH)
VHH: B1 VHH with G46E, L47R, A109D
notes: as for B9
B15: R21448517 (VHH)
VHH: B1 VHH with G46E, L47R, R105E, A109D
notes: as for B9
B16: R21448502 (VHH)
VHH: B1 VHH with R32Y, G46E, L47R
notes: as for B9
B17: R21448516 (VHH)
VHH: B1 VHH with R32Y, G46E, L47R, A52D, R105E, A109D, R111D
notes: as for B9
B18: R21448519 (VHH)
VHH: B1 VHH with G46E, L47R, A109D, R111D
notes: as for B9
B19: R21448518 (VHH)
VHH: B1 VHH with G46E, L47R, R105E, R111D
notes: as for B9
B20: R21448508 (VHH)
VHH: B1 VHH with R32Y, G46E, L47R, A109D
notes: as for B9
B21: R21448509 (VHH)
VHH: B1 VHH with R32Y, G46E, L47R, R111D
notes: as for B9
B22: R21448513 (VHH)
VHH: B1 VHH with R32Y, G46E, L47R, A52D, R105E
notes: as for B9
B23: R21560103 (VHH)
VHH: B4 VHH with S27F, I28T, Q50G, R51L, D52V, A74T, S83T, L84G, R106I
notes: as for B9
B24: R21560106 (VHH)
VHH: B4 VHH with S27F, I28T, I40A, Q50G, R51L, D52V, A74T, S83T, L84G, I108T
notes: as for B9

target: human PD-L1 (antigen, analyte in the Biacore kinetics) (human) (UniProt Q9NZQ7); test: Biacore, full kinetics

| binding | Binder |
| --- | --- |
| binds | B1 |
| binds | B2 |
| binds | B3 |
| binds | B4 |

target: T1, human His-PD-L1 (human, UniProt Q9NZQ7 19-238, limits assumed); test: ELISA, coated human His-PD-L1, anti-human IgG Fc HRP
T1 construct: also called human PD-L1

| binding | Binder |
| --- | --- |
| binds | B5 |
| binds | B6 |
| binds | B7 |
| binds | B8 |

target: human PD-L1 expressed on cells (Raji cells overexpressing human PD-L1; CHO cells) (human) (UniProt Q9NZQ7); test: flow cytometry, PD-L1 expressed on CHO or Raji cells

| binding | Binder |
| --- | --- |
| binds | B5 |
| binds | B6 |
| binds | B7 |
| binds | B8 |

target: human PD-L1 (antigen, analyte in the Biacore kinetics) (human) (UniProt Q9NZQ7); test: Biacore, full kinetics, antigen 50-1.5625 nM as analyte

| binding | Binder |
| --- | --- |
| binds | B5 |
| binds | B6 |
| binds | B7 |
| binds | B8 |
| binds | B9 |
| binds | B10 |
| binds | B11 |
| binds | B12 |
| binds | B13 |
| binds | B14 |
| binds | B15 |
| binds | B16 |
| binds | B17 |
| binds | B18 |
| binds | B19 |
| binds | B20 |
| binds | B21 |
| binds | B22 |
| binds | B23 |
| binds | B24 |

target: human PD-L1 expressed on cells (Raji cells overexpressing human PD-L1; CHO cells) (human) (UniProt Q9NZQ7); test: flow cytometry on CHOK1-PDL1 cells (cell binding assay), GMFI

| binding | Binder |
| --- | --- |
| binds | B5 |
| binds | B7 |
| binds | B8 |

target: T1, human His-PD-L1; test: ELISA: plate coated with human His-PD-L1, antibody titrated, goat anti-human IgG Fc HRP, OD450

| binding | Binder |
| --- | --- |
| binds | B5 |
| binds | B6 |
| binds | B7 |
| binds | B8 |

target: T1, human His-PD-L1; test: ELISA blocking assay: antibody titrated together with Biotin-PD-1 on coated human His-PD-L1, Streptavidin-HRP, OD450

| binding | Binder |
| --- | --- |
| binds | B5 |
| binds | B7 |
| binds | B8 |
